At least one compound was matched to its structure with a doubt left. Some ranges recur; such a range may be that of the whole group of compounds.
System: SEB-1 sebocytes
Experiment: In vitro treatment of cultured sebocytes, intracellular lipids (ADIPORED fluorescence normalized to DAPI cell count)
Assay type: cell-based
Details: formulation similar to that of Example 1, glitazone substituted for pioglitazone
Procedure: Cultured SEB-1 sebocytes (Xia et al., Dermato-Endocrinology, 1(2):92-95 (2009)) were treated with the pioglitazone formulation of Example 1. Sebocytes were cultured in 96 wells plates (2500 cells/well), until confluency. Plates were washed twice with warm sterile PBS and then incubated (at 37° C. and 5% CO2) for another 48 hours after treating them with the pioglitazone formulation in treatment media. After 48 hours, media was carefully removed from the plates and, after washing with PBS, ADIPORED™ reagent (Lonza Walkersville, Inc., Walkersville, Md.) was carefully added into each well. The plates were read for intracellular lipids using a spectrofluorometer. The lipid fluorescence was normalized against the total cell count that was performed using DAPI staining. Following treatment, the lipid content in the treated sebocytes was determined to have increased by 27% compared to control untreated sebocytes. The increased lipid content was confirmed by determining the expression of SREBP-1, a lipid synthesis transcription factor.

| Structure (SMILES) | results of Example 4 (sebocyte lipid content) repeated with another glitazone formulation |
| --- | --- |
| Cc1c(C)c2c(c(C)c1O)CCC(C)(COc1ccc(CC3SC(=O)NC3=O)cc1)O2 (stereo not drawn) [troglitazone] | Results similar to those obtained in Examples 2 to 4 using pioglitazone |
| CC1(COc2ccc(CC3SC(=O)NC3=O)cc2)CCCCC1 (stereo not drawn) [ciglitazone] | Results similar to those obtained in Examples 2 to 4 using pioglitazone |
| CN(CCOc1ccc(CC2SC(=O)NC2=O)cc1)c1ccccn1 (stereo not drawn) [rosiglitazone] | Results similar to those obtained in Examples 2 to 4 using pioglitazone |

Reference: patent US10722503B2, “Glitazones for topical application” (priority 2017, dated 2020)
